According to patent US9415018B2, “Methods for improving muscle strength” (Washington University, priority 2012, dated 2016):
For at least one compound, name, drawing or mass did not settle the structure.

Assays:
mdx mice = experiment: Forelimb grip strength in mdx mice, 4-week treatment; type: in vivo, mouse; settings: mdx mice aged 14 weeks, oral 0.067 mg rapamycin/kg twice per week for four weeks
wild-type mice = experiment: Forelimb grip strength in age-matched wild-type mice; type: in vivo, mouse; settings: oral rapamycin twice per week for four weeks

CO[C@H]1C[C@@H]2CC[C@@H](C)[C@@](O)(O2)C(=O)C(=O)N2CCCC[C@H]2C(=O)O[C@H]([C@H](C)C[C@@H]2CC[C@@H](O)[C@H](OC)C2)CC(=O)[C@H](C)/C=C(\C)[C@@H](O)[C@@H](OC)C(=O)[C@H](C)C[C@H](C)/C=C/C=C/C=C/1C [rapamycin]
strength after oral rapamycin, result in words (mdx mice): no improvement in strength
strength after oral rapamycin, result in words (wild-type mice): no significant increase in strength
